Test results as given in PubChem BioAssay AID2685 (National Center for Advancing Translational Sciences (NCATS), 2010).
This is one part of the list. Further columns of the screen follow, without active or inactive calls. Compounds called inactive in the main read-out are mostly missing here. The note in brackets gives the kind of curve behind each potency; many fits are weak.

Experiment: qHTS Assay for Lipid Storage Modulators in Drosophila S3 Cells;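 on cell number change: cells counted by Cell Tracker Red CMTPX staining in the red channel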
Details: BODIPY lipid droplet fluorescence, 18-24 h; for cell number change: measured here: cell count max response, cells fed with added oleic acid
How it was run: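 Drosophila S3 cells loaded with oleic acid (400 uM, as added) and compounds at several concentrations; lipid droplets imaged by 488-nm laser-scanning cytometry, 500–530 nm intensity and object ratio to cell channel. Percent activity normalized to 20 uM Triacsin C.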

[1] = measured here: cell number channel AC50, cells fed with added oleic acid
[2] = measured here: lipid fluorescence (Fed channel) AC50, cells fed with added oleic acid

SMILES | cell number change | AC50 [1] | AC50 [2]
Cc1ccc(C)c(NC(=O)CN(C)C(=O)[C@@H](NC(=O)c2ccc(C(C)(C)C)cc2)C(C)C)c1 | -61.8% | 18.4 µM [falling, single point] | 16.4 µM [falling, single point]
CNc1nc(-c2ccccc2)cc(-c2ccccc2)n1 | 8.01% |  | 
CN1CCN(NC(=O)/C=C/c2ccc(Br)cc2)CC1 | 22% | 3.66 µM [rising, partial curve] | 10.3 µM [rising, partial curve, poor fit]
COc1ccc(/C=C2\SC(=O)N(CCNC(=O)C3CC(=O)N(c4ccccc4)C3)C2=O)cc1 (centres undefined) | 1.02% | 5.8 µM [falling, single point] | 
CCn1nc(NC(=O)c2ccccn2)c2cc3cccc(C)c3nc21 | -0.0644% |  | 
Cc1ccc(/C=C/C(O)=C2/C(=O)N(C)C3(C)CC2c2ccccc2O3)cc1 (centres undefined) | -20.5% |  | 3.66 µM [rising, partial curve, poor fit]
COc1ccccc1OCC(=O)N/N=C1\CCc2ccccc21 | 44.5% | 1.64 µM [rising, full curve] | 2.31 µM [rising, partial curve]
O=C(NCc1ccccc1Cl)c1ccc2ccccc2n1 | -15.9% |  | 6.51 µM [rising, single point]
Cc1ccc(S(=O)(=O)N(C)c2nc3ccccc3n3c(C(C)C)nnc23)cc1 | -17% | 4.61 µM [falling, single point] | 6.51 µM [falling, single point]
O=C(Nc1cnn(Cc2ccc(Cl)cc2)c1)C1CCCC1 | 0.583% |  | 4.11 µM [rising, single point]
CCCn1c(=O)c2c(C(=O)OCC)cc(-c3ccco3)nc2n(CCC)c1=O | -42.3% | 29.1 µM [falling, single point] | 23.1 µM [falling, single point]
CCOC(=O)C1CCN(C(=O)c2ccc3c(c2)C(=O)N(c2ccccc2C)C3=O)CC1 | 15% |  | 4.11 µM [falling, partial curve]
CC(C)(C)OC(=O)N1CCC(NC(=O)c2[nH]cnc2C(=O)Nc2ccccc2)CC1 | -73.8% | 5.17 µM [falling, single point] | 1.84 µM [falling, single point]
N#CCCSc1nc(N2CCOCC2)c2c(c1C#N)CCCC2 | -10.7% |  | 0.00517 µM [falling, full curve, poor fit]
Cc1cc(OCc2cccc(Cl)c2)c(C)cc1CN1CCOCC1 | -26% |  | 18.4 µM [falling, partial curve, poor fit]
O=[N+]([O-])c1ccccc1S(=O)(=O)c1ccccc1 | 28.4% |  | 6.51 µM [rising, single point]
Cc1ccc(NC(=O)C(Cc2ccccc2)NC(=O)OCc2ccccc2)cc1C (centres undefined) | -16% |  | 
COc1ccc(NC(=O)CCNS(=O)(=O)c2cccc3nonc23)cc1Cl | -25.7% |  | 6.51 µM [falling, single point]
O=c1[nH]c2cc3c(cc2cc1CN(CCN1CCOCC1)C(=S)NCC1CCCO1)OCO3 (centres undefined) | 0.428% |  | 7.31 µM [rising, single point]

SMILES | cell number change | AC50 [1] | AC50 [2]
CC(C)CC(NC(=O)c1ccco1)C(=O)Nc1ccc2c(c1)OCCO2 (centres undefined) | 1.56% |  | 7.31 µM [rising, partial curve, poor fit]
CC(Sc1nc(-c2ccccc2)cc(C(F)(F)F)n1)C(=O)N1CCCCC1 (centres undefined) | -44.2% | 29.1 µM [falling, single point] | 5.8 µM [falling, full curve]
CCCCCOC(=O)Nc1ccc(S(=O)(=O)Nc2cccc([N+](=O)[O-])c2)cc1 | -50.3% | 16.4 µM [falling, single point] | 
O=C(O)CCCN1C(=O)c2cccc3cccc(c23)C1=O | 3.86% |  | 
O=C(/C=C/c1ccccc1[N+](=O)[O-])OC1CCCCC1=O (centres undefined) | 9.16% |  | 
CCOC(=O)c1c(C)[nH]c(C(=O)COC(=O)CSCC(=O)N(CC)CC)c1C | 5.31% | 0.00411 µM [rising, full curve, poor fit] | 
O=C1Nc2ccc(Cl)cc2C12Nc1ccccc1-c1nnc(SCc3ccccc3F)nc1O2 (centres undefined) | -14.4% |  | 0.411 µM [falling, single point]
CCCn1c(SCC(=O)NC2CCCC2)nnc1-c1cccnc1 | -1.3% |  | 2.91 µM [rising, single point]
O=c1[nH]sc2ccccc12 | -56.9% | 1.3 µM [falling, full curve] | 29.1 µM [falling, partial curve, poor fit]
CC1CCCCC12NC(=O)N(CC(=O)Nc1sc3c(c1C(N)=O)CCC3)C2=O (centres undefined) | 67.5% | 29.1 µM [rising, single point] | 
CCOc1ncccc1C(=O)OCC(=O)Nc1nnc(-c2ccccc2)o1 | -16.8% |  | 
Cc1ccc(Cl)cc1N(Cc1ccc(C(=O)NCc2cccnc2)cc1)S(=O)(=O)c1ccccc1 | -24.7% |  | 20.6 µM [falling, partial curve]
Cc1oc2ccc(OCC(N)=O)cc2c1C(=O)OC(C)C |  |  | 0.082 µM [rising, full curve, poor fit]
CCN1CCN(C(=O)C2CCN(c3nnc(-n4c(C)ccc4C)s3)CC2)CC1 | -15.6% |  | 2.59 µM [falling, full curve, poor fit]
COc1cc(-c2n[nH]c(=S)n2-c2cc(C(F)(F)F)ccc2Cl)cc(OC)c1OC | -36.6% | 0.517 µM [falling, full curve, poor fit] | 
O=C(c1ccccc1)N1CCOC12CCN(c1ncc(C(F)(F)F)cc1Cl)CC2 | -2.49% |  | 6.51 µM [rising, single point]
CCOc1ccc(/C=C/C(=O)c2ccccc2)cc1 | 111% | 23.1 µM [rising, single point] | 16.4 µM [rising, partial curve]
COC(=O)[C@H](C)NC(=O)NC1CCCc2ccccc21 (some centres undefined) | 31% | 29.1 µM [rising, single point] | 0.259 µM [rising, partial curve]
Cc1cc(C(=O)COC(=O)c2ccc(O)cc2O)c(C)n1-c1ccccc1 | -1.1% |  | 

As entered above:
Under AC50 [2], O=C(c1ccccc1)N1CCOC12CCN(c1ncc(C(F)(F)F)cc1Cl)CC2 reads 6.51 µM [rising, single point]
Under cell number change, CCN1CCN(C(=O)C2CCN(c3nnc(-n4c(C)ccc4C)s3)CC2)CC1 reads -15.6%
Under cell number change, O=C(/C=C/c1ccccc1[N+](=O)[O-])OC1CCCCC1=O (centres undefined) reads 9.16%
Under cell number change, O=C(O)CCCN1C(=O)c2cccc3cccc(c23)C1=O reads 3.86%

Next part.

SMILES | cell number change | AC50 [1] | AC50 [2]
CC1(C(=O)NC2CCCC2)CCC(=O)N1Cc1cccs1 (centres undefined) | 9.96% |  | 29.1 µM [rising, single point]
Cc1ccc(Nc2c([N+](=O)[O-])ccc3nonc23)cc1C | -8.33% |  | 29.1 µM [rising, single point]
COC(=O)[C@@H]1C[C@]2(OC(=O)c3ccccc3)C=CC(=O)C[C@@H]2N1C(=O)OCc1ccccc1 | 0.484% |  | 29.1 µM [falling, single point]
CCCc1ccc(-c2cc(NC(=O)CSc3n[nH]c(N)n3)n(-c3ccccc3)n2)cc1 | -11.4% |  | 0.00651 µM [rising, full curve, poor fit]
CCOC(=O)c1oc2ccc(S(=O)(=O)Nc3ccc4c(c3)n(C)c(=O)n4C)cc2c1C |  | 0.164 µM [rising, full curve] | 
O=C(CSc1nc2ccccc2s1)NCCCN1CCOCC1 | 38.6% | 0.92 µM [rising, partial curve] | 2.06 µM [rising, partial curve]
Cc1ccc(S(=O)(=O)CCC(=O)OCC(=O)N2c3ccccc3NC(=O)C2(C)C)cc1 | 2.43% |  | 29.1 µM [falling, single point]
Cc1cc(C(=O)O)ccc1-c1ccc(/C=C2\NC(=O)N(Cc3ccc(F)cc3)C2=O)o1 | 46.9% | 1.3 µM [rising, partial curve] | 8.2 µM [rising, partial curve]
COc1ccc(C2C(C(C)=O)=C(O)C(=O)N2c2nccs2)cc1 (centres undefined) | -43.2% | 1.16 µM [falling, full curve] | 3.66 µM [falling, full curve]
O=C(Nc1ccc(Cl)c(S(=O)(=O)N2CCCCC2)c1)c1cnccn1 | 2.08% | 0.13 µM [falling, full curve, poor fit] | 
CCOc1ccc(C(C(=O)NCC2CCCO2)N(CCc2cccc(C)c2)C(=O)c2snc(C(N)=O)c2N)cc1 (centres undefined) | -9.68% |  | 25.9 µM [falling, partial curve]
CC(=O)O[C@H]1CSC[C@H]1NC(=O)c1ccccc1 | -8.78% | 5.17 µM [falling, partial curve] | 4.11 µM [falling, partial curve]
O=C(NCc1ccccc1Cl)c1ccc2c(c1)SC1=NS(=O)(=O)CCN12 | 91.4% | 0.00517 µM [falling, full curve, poor fit] | 0.00461 µM [falling, full curve, poor fit]
CCOC(=O)CC(C#N)c1cn(C)c2ccccc12 (centres undefined) | 40.3% | 25.9 µM [rising, single point] | 
COc1ccc(C2=NN(C(=O)C(O)c3ccccc3)C(O)(C(F)(F)F)C2)cc1 (centres undefined) | 5.77% |  | 0.651 µM [rising, full curve]
O=Nc1c(O)n(Cc2cccc(C(F)(F)F)c2)c2ccccc12 | -28% |  | 10.3 µM [falling, partial curve, poor fit]
COc1cc(C(C)=O)ccc1OCC(=O)Nc1ccccc1N1CCCC1 | -32.8% | 10.3 µM [falling, partial curve] | 8.2 µM [falling, partial curve]
COc1cc2c(c(OC)c1OC)-c1c(cc3c(c1OC)OCO3)C[C@H](C)[C@@](C)(O)C2 | 16.5% |  | 29.1 µM [rising, single point]
